Test results as given in the supplement of paper PMC3334620.
Over roughly 33,000 sequences, “E-score (-0.5 to 0.5)” has its median near -0.0014; the highest 2% begin near 0.25. This is one part of the list.

target: T1, Cad1 (UniProt P24813); test: PBM E-score (8-mer binding enrichment) (E-score (-0.5 to 0.5)); higher = stronger / more preferred TF binding; conditions: protein concentration: 100 nM; construct: GST-full length
T1 sequence: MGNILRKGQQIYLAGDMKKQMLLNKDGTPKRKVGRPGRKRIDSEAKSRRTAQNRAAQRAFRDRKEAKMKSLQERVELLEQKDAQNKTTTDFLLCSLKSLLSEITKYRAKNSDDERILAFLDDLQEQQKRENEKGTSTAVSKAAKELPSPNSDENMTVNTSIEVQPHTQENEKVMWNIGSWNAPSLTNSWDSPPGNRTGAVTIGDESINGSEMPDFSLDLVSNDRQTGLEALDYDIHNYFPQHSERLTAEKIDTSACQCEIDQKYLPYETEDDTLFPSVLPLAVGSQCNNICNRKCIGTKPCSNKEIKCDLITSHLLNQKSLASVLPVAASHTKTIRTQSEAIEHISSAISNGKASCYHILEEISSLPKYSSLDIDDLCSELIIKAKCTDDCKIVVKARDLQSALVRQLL
Procedure, shortened: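 GST-tagged yeast TFs (full-length or DNA-binding domain) were made by PURExpress in vitro transcription/translation and applied at about 100-200 nM to universal all-10-mer Agilent arrays. The arrays were made double-stranded by primer extension, on fresh or once-stripped slides. Bound protein was detected with fluorescent anti-GST, and scans were normalised with masliner. Each ungapped eight-base word, pooled with its reverse complement, received an E-score (modified Wilcoxon-Mann-Whitney statistic) from the Universal PBM Analysis Suite.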

Sequence	PBM E-score
CCATACCC	-0.202
CGGAGACA	0.161
CTGTGGGC	-0.0886
GGCACCGA	0.0761
AGGAGGGC	-0.353
CTGGGAGC	-0.254
CCATTCCA	-0.0291
GCGAAATA	-0.0552
AACGCGTC	0.197
AAAACATC	-0.0287
CAACAGAG	-0.174
CGCGGTGA	0.0991
GAAGCAAC	0.0175
AATCGCGC	0.327
AAAATTCG	0.201
ACCCTTAT	0.105
CCCCCGGA	-0.335
CATAACGC	0.123
CATAGCGC	0.26
GAACTTCC	0.0173
AGATATCA	0.209
TGGTATAA	0.038

Sequence	PBM E-score
CGTTTGAG	0.00124
CCACACGA	-0.0898
AAACGAAA	0.287
AAGCTCAG	-0.0186
TAAGCTCA	0.0541
GATGTGAA	0.0267
AACGCGTT	0.153
GTTCCCCA	-0.0947
TAGGAACA	-0.0307
GATATACC	0.0836
AAACTTCC	-0.0776
AGGAAAAC	0.0473
CTCACTGC	-0.0454
ATGGCAGC	-0.0816
CATGTAGG	-0.00754
ATGGATAA	0.158
AGGGAATC	0.0468
ATAACGAT	-0.0788
GACTATTA	0.011
TTTAAAAA	0.0229
AAATACTG	0.114
ACTGCGCG	0.0621

Sequence	PBM E-score
AGGGAAGA	-0.15
AGCCGTCG	0.219
CATACGGG	-0.155
CAAGTATA	-0.208
CACGGAGG	-0.131
AGAGCCGA	-0.0145
AGCTTTCC	-0.168
ATCCGAAC	-0.0852
CTAGTACA	0.0848
GGCTATTA	0.175
AGGTGAGA	0.0223
CGTACCAA	0.256
CTCTGTGA	0.123
AAACAGCG	0.182
GTGGACGA	0.0929
ACCACGAA	-0.099
ACGTGATG	0.0396
ATTGAGCA	-0.0157
AAGCTGTA	0.00646
GTACAAGA	-0.0727
AGCTGTTA	0.167
AGAACCCT	-0.217

In a second layout: results already given
Sequence | PBM E-score
AGCCGTCG | 0.219
GGCTATTA | 0.175
AGGTGAGA | 0.0223
GTGGACGA | 0.0929
AGAACCCT | -0.217

(next part)

Sequence	PBM E-score
CTCCTAGA	-0.115
CAAATAGA	0.0788
AAAATGAC	0.132
ACCCTCGA	-0.137
CGGAGGGC	-0.259
CTTCAATC	-0.066
ACATTAAT	0.182
TCCGACGA	0.0646
CATTGCAC	0.109
CAATTCCC	0.113
TGCGTCAA	-0.039
AACCTAGC	-0.07
AGAGAGAG	-0.214
CCGTTGGA	-0.182
GATTGTCA	0.117
ATAACCCA	0.0872
CAGACTAG	0.0266
CCATCGAA	0.0932
CACCAGTG	-0.0993
ACGGCTGC	-0.0784
